Data published in PubChem BioAssay AID1347423 (Functional Genomics Laboratory (NCATS/FGL), 2020).
Hit rate of the full screen: of about 52,000 sequences, about 210 (0.4%) were called active.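 How the source made its calls: active means gene whose silencing raises cell survival under the drug, median off-target-corrected z-score across its silencing RNAs 2 or more; inactive means the rest.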 The list shows a part of the results.

assay: Resistance to Poly (ADP-Ribose) Polymerase inhibitor: Gene Identification via Genome-wide siRNA Screen; details: mouse BRCA2 R2336H ES cells, olaparib, CellTiter-Glo viability; hits give high values
In short: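 Mouse BRCA2 R2336H ES cells were reverse-transfected with siRNA (20 nM final), treated at 48 h with 500 nM olaparib, and read by CellTiter-Glo after 72 h. Scores: MAD-based z per siRNA, median per gene, seed off-target correction.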

| Sequence | z-score |
| --- | --- |
| GGAAUUGGUCUAUAUGCGUTT against Il2ra | inactive: 0.38 |
| CCUGGUGUUUGUCUGUACUTT against Cxcr6 | inactive: 0.449 |
| GGAGAUGGCCGACUUCUAUTT against 2810002N01Rik | inactive: 0.926 |
| GGCAAAGCACCUUUAUCUGTT against G430095P16Rik | inactive: 0.216 |
| GGUGCGUAACUUAUUUUUATT against 2610312E17Rik | inactive: 0.37 |
| GGAAGAAGACAGCAUGAAGTT against Mpp4 | inactive: 0.506 |
| GGAAAACCUUCAGUCUUUGTT against Slc29a2 | inactive: -0.0717 |
| GGCCCUAGAUAUUGAUUUUTT against Rbp2 | inactive: 0.322 |
| GGUUACCAUGUGAAGCAGGTT against Tnfrsf14 | inactive: -0.79 |
| GGAAGAGGAGGUGACAUACTT against 4932702D22Rik | inactive: 1.06 |
| GGUUCUCCAAACUCUGCCATT against Arhgap1 | inactive: -2.08 |
| GGCUGAAAGGUCAGAUUCCTT against Vbp1 | inactive: 0.405 |
| GCAAAACAUUUCCUGUCUGTT against Zfp316 | inactive: -0.443 |
| GGCUUUUUGUUAAGGCAGCTT against BC002199 | inactive: 2.54 |
| CCUUAGAGAGCUACGCCAUTT against Mrgprh | inactive: 1.24 |
| GACAGGAAGUUGAUGAAUUTT against Raet1a | inactive: -0.444 |
| CCACACUGUAUAAUACAAUTT against Fndc6 | inactive: -2.27 |
| GGCAAAAGGAAGAGGACGATT against Brd4 | inactive: 0.275 |
| GGGUAAUGACAUUAGCAGUTT against Pbp | inactive: -0.17 |
| GGUUGAUUAGAAUUGAUGCTT against 5830467P10Rik | inactive: -0.223 |
| GGAGAAGUCAUUGUUUUUGTT against Klhdc2 | inactive: 0.688 |
| GCUCAGUAUGUUUGGGAGUTT against 5330416C01Rik | inactive: -1.02 |

Retrieved one by one from the list above, 4 records:

| Sequence | z-score |
| --- | --- |
| GGAAGAGGAGGUGACAUACTT against 4932702D22Rik | inactive: 1.06 |
| CCUUAGAGAGCUACGCCAUTT against Mrgprh | inactive: 1.24 |
| GGCUGAAAGGUCAGAUUCCTT against Vbp1 | inactive: 0.405 |
| CCACACUGUAUAAUACAAUTT against Fndc6 | inactive: -2.27 |

The list continues:

| Sequence | z-score |
| --- | --- |
| CCUGACAAGACAUUUCAAATT against Dusp22 | inactive: -0.127 |
| GGGACUGAAAUCUAUUUUGTT against Zfp217 | inactive: 0.967 |
| GGGAAAUUUGUCCUGUUAATT against Hibadh | inactive: -1.14 |
| GGCUUUUUUGCCAUUGCUATT against Wnt9b | inactive: -0.507 |
| GGCACGAUAUUAUUUUCAGTT against Lrfn5 | inactive: -0.418 |
| GGACCGAUAUAACCUACCCTT against Rps4x | inactive: -2.4 |
| GGAUAAAAUUGCUUUACUGTT against 3110031B13Rik | inactive: -0.0332 |
| GCCUGGCUUGUAACUUCACTT against 1700034H15Rik | inactive: 0.723 |
| GGUCUUUGCCCUACAAACATT against Fer1l3 | inactive: 0.136 |
| CUGUAAGGCGGAUAAGACCTT against 2610017I09Rik | inactive: -0.52 |
| CCGGGUAGUGAGUAAGCUUTT against Neu2 | inactive: 0.304 |
| GGAUGGCAGCUUUGACCUUTT against Cdc42ep2 | inactive: 0.88 |
| GCAAUGAACCCUAGAAUUATT against Col4a1 | inactive: 0.968 |
| GGGUCUAUACCAUCCGGGATT against Mamdc1 | inactive: -0.412 |
| GGGUAUUGGUUUUAGAGCATT against Emd | inactive: 0.826 |
| GGUGUAAGAGCUUUGGCCUTT against LOC432436 | inactive: 0.478 |
| GGCUUGGUAGCCAUCCUCATT against Lrrc27 | inactive: 0.453 |
| GCUUUCUCUUAUGGAUCUATT against Olfr700 | inactive: -1.01 |
| GGAAUGUUCACUGACAAAGTT against BC023488 | inactive: 0.329 |
| GAAUAAAUCAGACCACAAATT against 1810020D17Rik | inactive: 1.33 |
| GGGCCUGUGAAACUUGUGCTT against Mrps16 | inactive: -1.24 |
| GGAUAAGACUGUUGUCAGATT against Prlpc1 | inactive: -2.91 |

| Sequence | z-score |
| --- | --- |
| GGAAGUGAUUGCCAUCAAATT against Sh3bp4 | inactive: 1.22 |
| GGAGAUCCGUCGAAUCAACTT against Anxa4 | inactive: 1.7 |
| GCUUAAUCAGCUAAUCAAUTT against Sult1c2 | inactive: -0.0973 |
| GGUAGUUGUGCCAGAAAAATT against 4931406P16Rik | inactive: 0.0951 |
| GCAUACCAUCUUAUUUUGGTT against Sptlc1 | inactive: 0.582 |
| GGGCUACGACAGAAUCAUCTT against C130036J11 | inactive: 2.27 |
| GGCCAAGUGAUAGAGUUCATT against Crygd | inactive: 0.491 |
| GCCCUUGAGUGAAAGAGAUTT against Clspn | inactive: -0.948 |
| GCCCAAAAAAGCUCAGAGUTT against C6.1A | inactive: -0.234 |
| GGUUCAACAUAUCCAUAGCTT against V1re12 | inactive: 0.102 |
| GGAGCUGAUGUAGCCUUCATT against Yif1 | inactive: -1.82 |
| GGCAUCCAAAAUUUUCAACTT against Nxph3 | inactive: 1.31 |
| GGCGGACAUCACUUAUGAGTT against Gopc | inactive: -1.1 |
| GGCAGCGAUUGACAAAAUGTT against Eefsec | inactive: 0.222 |
| CCACCAUCAUGAGAGAGGATT against Olfr350 | inactive: -0.358 |
| GGUGCUCUGCCAAACUGUUTT against Mmaa | inactive: -0.527 |
| GGCUCCUCAUUACCUCUACTT against 1110014J01Rik | inactive: -2.08 |
| CGCUCAUGAACUUGUACUUTT against Tm7sf1 | inactive: -0.709 |
| CCGACCCAAUUAAUGAUCATT against 2010305C02Rik | inactive: -1.85 |
| CCUGUGAGUACCAGCCAACTT against Gm691 | inactive: 0.435 |
| GCCAUGGAGCUCAUUUGGATT against Pcnt1 | inactive: -0.798 |
| GGGUACCUACAUAGACAAGTT against Rps11 | inactive: -1.87 |
